In article PMC8825860 one finds binding data, which are given here for one substance.

The chains behind the UniProt entries cited, without tags or fusion partners. Where a name states a change or a piece, a line headed by the entry shows the natural chain unless it says otherwise.
UniProt P15056: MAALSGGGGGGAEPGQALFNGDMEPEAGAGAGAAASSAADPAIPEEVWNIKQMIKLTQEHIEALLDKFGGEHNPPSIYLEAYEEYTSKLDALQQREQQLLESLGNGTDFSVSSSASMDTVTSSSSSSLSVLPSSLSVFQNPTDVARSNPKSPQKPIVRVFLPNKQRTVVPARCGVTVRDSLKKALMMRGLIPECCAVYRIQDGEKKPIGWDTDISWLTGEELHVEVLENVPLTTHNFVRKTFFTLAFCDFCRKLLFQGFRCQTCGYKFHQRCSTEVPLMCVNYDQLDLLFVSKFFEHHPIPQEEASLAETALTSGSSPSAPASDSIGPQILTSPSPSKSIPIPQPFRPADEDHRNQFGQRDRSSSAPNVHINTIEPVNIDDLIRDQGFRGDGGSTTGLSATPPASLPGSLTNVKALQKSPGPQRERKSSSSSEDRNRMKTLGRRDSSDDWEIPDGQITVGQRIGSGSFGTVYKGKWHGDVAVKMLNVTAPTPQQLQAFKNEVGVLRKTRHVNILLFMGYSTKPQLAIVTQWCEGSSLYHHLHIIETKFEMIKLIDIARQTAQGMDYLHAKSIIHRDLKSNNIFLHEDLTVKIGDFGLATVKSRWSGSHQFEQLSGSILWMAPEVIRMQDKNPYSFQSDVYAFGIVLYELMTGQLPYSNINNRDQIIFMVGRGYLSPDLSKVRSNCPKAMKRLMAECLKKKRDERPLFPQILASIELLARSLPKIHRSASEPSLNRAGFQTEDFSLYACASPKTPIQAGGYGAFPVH
UniProt P27695: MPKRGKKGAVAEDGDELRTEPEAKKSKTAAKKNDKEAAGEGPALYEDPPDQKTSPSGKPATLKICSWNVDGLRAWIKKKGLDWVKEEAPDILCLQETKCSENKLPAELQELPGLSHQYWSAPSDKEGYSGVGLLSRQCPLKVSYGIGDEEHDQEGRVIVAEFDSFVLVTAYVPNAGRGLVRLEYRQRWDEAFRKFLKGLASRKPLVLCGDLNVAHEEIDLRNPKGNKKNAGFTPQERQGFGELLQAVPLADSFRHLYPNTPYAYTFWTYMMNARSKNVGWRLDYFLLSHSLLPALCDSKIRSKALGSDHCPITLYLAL

Results are given in words; binding and its absence hold for the method and conditions named. In cells and extracts the contact can be indirect. Some results given as binding are weak or reduced against the parent protein; the word gives no strength.

This test deals with BRAF V600E (human) (UniProt P15056). Nature of the test: co-IP; TPC-1 cells with a BRAF V600E Tet-on system; which protein was precipitated and the buffer are not told.

As to “Redox factor-1 (Ref-1) (from UniProt P27695 1-318)”, the binding result is recorded as “binds”.
